Values from PubChem BioAssay AID493246 (Drosophila RNAi Screening Center, 2011).
In all, the deposit lists about 21,000 reagents; this is an unselected part of those with a known target gene and a result. Of all reagents, 429 (2%) got an active call. 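Values are raw and not normalised between plates; calls rest on per-plate z-scores that were not deposited.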 Not given: the amount of reagent, the time to read-out.

Test: 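Genome-wide search for dsRNAs that reduce cell number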 (primary screen)
System: Drosophila Kc and S2R+ cells
Knock-down reagent: long dsRNA against Drosophila genes
Read-out: 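Cell number per well after knock-down, printed as raw plate values; calls were based on per-plate z-scores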
Direction: Kc cell number and S2R+ cell number: higher = more cells remaining
Hit rule: 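Counted as a hit if cell number falls by a z-score of at least 3 within its plate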

How did the screen score Pdi [DRSC11250]?
Kc cell number, rep 1: 1.38e6; Kc cell number, rep 2: 1.47e6; S2R+ cell number, rep 1: 1.18e6; S2R+ cell number, rep 2: 1.29e6; outcome: inactive

For CG9825 [DRSC04569], how do the results read?
Kc cell number, rep 1: 1.57e6; Kc cell number, rep 2: 1.65e6; S2R+ cell number, rep 1: 1.34e6; S2R+ cell number, rep 2: 1.46e6; outcome: inactive

With CG30411 [DRSC04004], what was measured?
Kc cell number, rep 1: 1.47e6; Kc cell number, rep 2: 1.55e6; S2R+ cell number, rep 1: 9.87e5; S2R+ cell number, rep 2: 1.06e6; outcome: inactive

What is on record for CG5861 [DRSC02907]?
Kc cell number, rep 1: 1.51e6; Kc cell number, rep 2: 1.80e6; S2R+ cell number, rep 1: 1.33e6; S2R+ cell number, rep 2: 1.47e6; outcome: inactive

For Ubc2 [DRSC01137], how do the results read?
Kc cell number, rep 1: 1.55e6; Kc cell number, rep 2: 1.61e6; S2R+ cell number, rep 1: 1.04e6; S2R+ cell number, rep 2: 1.24e6; outcome: inactive

Which result is listed for Ubc2 [DRSC03468]?
Kc cell number, rep 1: 1.58e6; Kc cell number, rep 2: 1.57e6; S2R+ cell number, rep 1: 1.08e6; S2R+ cell number, rep 2: 1.22e6; outcome: inactive

Which result is listed for cni [DRSC03512]?
Kc cell number, rep 1: 1.80e6; Kc cell number, rep 2: 1.87e6; S2R+ cell number, rep 1: 1.19e6; S2R+ cell number, rep 2: 1.34e6; outcome: inactive

With fd3F (retired record) [DRSC17843], what was measured?
Kc cell number, rep 1: 1.26e6; Kc cell number, rep 2: 1.40e6; S2R+ cell number, rep 1: 5.87e5; S2R+ cell number, rep 2: 6.63e5; outcome: active

How did the screen score cnc [DRSC14676]?
Kc cell number, rep 1: 1.51e6; Kc cell number, rep 2: 1.58e6; S2R+ cell number, rep 1: 9.84e5; S2R+ cell number, rep 2: 1.08e6; outcome: inactive

What did the screen give for cnc [DRSC15289]?
Kc cell number, rep 1: 1.25e6; Kc cell number, rep 2: 1.31e6; S2R+ cell number, rep 1: 1.26e6; S2R+ cell number, rep 2: 1.34e6; outcome: inactive

What is on record for cnc [DRSC15600]?
Kc cell number, rep 1: 1.33e6; Kc cell number, rep 2: 1.39e6; S2R+ cell number, rep 1: 1.03e6; S2R+ cell number, rep 2: 1.12e6; outcome: inactive

With cnc [DRSC15601], what was measured?
Kc cell number, rep 1: 1.31e6; Kc cell number, rep 2: 1.31e6; S2R+ cell number, rep 1: 1.08e6; S2R+ cell number, rep 2: 1.12e6; outcome: inactive

What did the screen give for TM9SF3 [DRSC09747]?
Kc cell number, rep 1: 1.34e6; Kc cell number, rep 2: 1.48e6; S2R+ cell number, rep 1: 1.24e6; S2R+ cell number, rep 2: 1.22e6; outcome: inactive

What is on record for sv [DRSC17221]?
Kc cell number, rep 1: 1.53e6; Kc cell number, rep 2: 1.47e6; S2R+ cell number, rep 1: 1.14e6; S2R+ cell number, rep 2: 1.18e6; outcome: inactive

Which result is listed for CG3335 [DRSC10358]?
Kc cell number, rep 1: 1.31e6; Kc cell number, rep 2: 1.40e6; S2R+ cell number, rep 1: 1.07e6; S2R+ cell number, rep 2: 1.21e6; outcome: inactive

What did the screen give for angel [DRSC04670]?
Kc cell number, rep 1: 1.44e6; Kc cell number, rep 2: 1.49e6; S2R+ cell number, rep 1: 1.23e6; S2R+ cell number, rep 2: 1.30e6; outcome: inactive

What is on record for Cpr64Aa [DRSC08460]?
Kc cell number, rep 1: 1.59e6; Kc cell number, rep 2: 1.46e6; S2R+ cell number, rep 1: 1.08e6; S2R+ cell number, rep 2: 1.31e6; outcome: inactive

How did the screen score RpLP0 [DRSC11878]?
Kc cell number, rep 1: 1.61e6; Kc cell number, rep 2: 1.67e6; S2R+ cell number, rep 1: 9.02e5; S2R+ cell number, rep 2: 1.03e6; outcome: inactive

With Pdp [DRSC17825], how do the results read?
Kc cell number, rep 1: 5.73e5; S2R+ cell number, rep 1: 9.09e5; outcome: inactive

With mRpS31 [DRSC10556], what does the deposit list?
Kc cell number, rep 1: 1.87e6; Kc cell number, rep 2: 1.93e6; S2R+ cell number, rep 1: 1.22e6; S2R+ cell number, rep 2: 1.37e6; outcome: inactive

How did the screen score CG31287 [DRSC13138]?
Kc cell number, rep 1: 1.45e6; Kc cell number, rep 2: 1.46e6; S2R+ cell number, rep 1: 1.01e6; S2R+ cell number, rep 2: 1.12e6; outcome: inactive

Called active, among the entries above:
fd3F (retired record) [DRSC17843]: Kc cell number, rep 1 = 1.26e6; Kc cell number, rep 2 = 1.40e6; S2R+ cell number, rep 1 = 5.87e5; S2R+ cell number, rep 2 = 6.63e5; outcome = active
